## Screening data

Data taken from PubChem BioAssay AID1159506, deposited by NCATS (2015).

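Genome-wide siRNA knockdown in TC32 Ewing sarcoma cells, comparing luciferase light from an NR0B1-promoter reporter with a CMV-promoter reporter 48 hours after transfection. Each siRNA was applied at 20 nM. A z-score of the log NR0B1-over-CMV signal, less the median of siRNAs with the same seed; more negative means a stronger specific loss of the NR0B1 reporter.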

The strongest results of the screen are mostly left out here. Sequences are the guide (antisense) strand, without overhang.

| siRNA | gene | seed-corrected z-score |
|---|---|---|
| `UUACCCAAAGUAACGAGGG` | PDK3 | 0.02643 |
| `UAUAUAUCUUCUUACAACC` | ARHGEF10 | -0.5972 |
| `AACUUGAGACAAUACAUCC` | CCDC79 | -1.127 |
| `UAUCGAAUCAGCUCAUCAC` | TRAK2 | -0.4592 |
| `UGAUGUCAUAGUCGAGUGC` | CCDC138 | -0.271 |
| `UUGAUUAUUUUCAACGUGG` | PDE5A | 0.1886 |
| `UGAUGUACAGCAGAUAUAU` | TRPV6 | -0.8295 |
| `UAGCCUAGAAUGUAUCGUG` | PIGV | 0.3083 |
| `UCAAUUCCAACCACGAGAG` | RPL27P8 | -1.348 |
| `UAUCGAAAAGGUACUAAAC` | NRDE2 | -0.01464 |
| `UAUCUUCUAAGGUAUCGAG` | PDE4B | -1.467 |
| `UUAUCUGGAGCUGCAGUAG` | LOC646227 | -0.3098 |
| `UCCUUAUUGAGCGAUUUGG` | KATNAL2 | 0.08439 |
| `AAAUCAACCACACUCAGCU` | CD8B | 0.1596 |
| `AAUUCCUCAACAUUAACCC` | NME7 | 0.4454 |
| `UUAGUAGCCUCUGAGAUGA` | TMEM39A | -0.8702 |
| `UAUGGUAAUCUGCUUGGGC` | ARHGAP17 | -0.3979 |
| `UUUAGUCCCACCUGGUUGC` | ZCCHC17 | 0.744 |
| `UUUAGUUCAAUGAUGAUCC` | EPCAM | 0.2623 |
| `AAGCUUCCGAAUAAAGUCC` | DAPK2 | 0.006954 |
| `UGCAGGACAGAGUCUUGGC` | LSP1P3 | -0.8485 |
| `UUCGGUUUGCUCUUGAUGC` | TNFRSF17 | 0.2734 |
| `UAUCUUCAAACUUCGACUU` | HMGB2 | -0.4007 |
| `UAAAGUACACUGGUCUUCC` | RAB27A | -1.543 |
| `UUACUAUCGAUCUUCAUUC` | VTA1 | -0.2526 |
| `AAAGGGUUCACCCAAGUGC` | RSPH6A | 0.4584 |
| `UUCGGUUGAACUCUCAGUC` | MATR3 | -0.6638 |
| `UCCAUGAACACCUCCACGC` | PEX16 | 0.8915 |
| `UACUCGAAUCUAUUUGCCC` | SMARCA5 | 0.3214 |
| `AGACGAAUAGCUCUCUUCC` | GMEB1 | 1.109 |
| `UGAGUGGUGAGGGAUUGGA` | LIMS2 | 0.1948 |
| `UAGGCGAAGUCCAUGAGCG` | ZBTB7A | 0.9212 |
| `AUCUUGACCACCAACAUCC` | ARF4 | -0.5738 |
| `UUGGUGAAGAUUAGGGAUG` | LRP8 | -0.1343 |
| `AAGGCGAUAAUUGUAAUGC` | RNF17 | -0.2574 |
| `UCUCAUACACUUUCCGUGC` | CRNKL1 | 1.218 |
| `UUUGGUUCAGUCCUCCACU` | MIR4500HG | 0.7196 |
| `UCUGCGAAGAAAAUGUUCC` | IREB2 | -0.5842 |
| `AAACCGAAUCCGCAUAUGG` | ASZ1 | 0.2576 |
| `AUUGGAACUGGUCUCCUCC` | KANK4 | 0.1019 |
| `AAGACUGCAACUUCAGAUG` | S1PR4 | 0.2382 |
| `UUUAGCUCGAGAUUGUCCC` | NSA2 | 0.6767 |
| `UUCCAAACACGGAUUCAUG` | FAM19A4 | 0.4021 |
| `UUCAUUAGAAAGUCUGUCC` | EMC7 | 2.995 |
| `UCUGGAUUAAAUGCUUCAC` | ANKRD39 | 0.2134 |
| `UAGCUUUAAUAGAAUGCUC` | CLEC2D | 0.5271 |
| `UUCGAUUCCGCUCUAAGCC` | SLC39A9 | 0.4822 |
| `UCAGGAACAAGUCAGAGGA` | CNPPD1 | 0.01216 |
| `AAACUGGAAAUUGGUAUAG` | SIDT2 | -1.466 |
| `UAUUCUCCUGUACUAGACC` | GABRA3 | -0.4036 |
| `CCAGAGAUCCGCUUAACGC` | HIST2H4A | -0.3788 |
| `UUUUGUUUAUGAGAUGAAU` | BATF2 | 0.7212 |
| `UAGAUUCUCGGGAAAGUGG` | RBMY2DP | 0.05682 |
| `UUGUAUCAUAACCAGAUUC` | GUCY1B3 | -0.7243 |
| `UGAUGUCACACAGGCAUGC` | NGFR | -0.1856 |
| `UUUGGUUCCACCGCCGUCU` | IL2RB | 0.19 |
| `AUACUCAUUAGUAACAGUC` | ARMCX3 | -0.02007 |
| `UAUCGUCCAACCAGAAGGG` | TRIB1 | -0.4888 |
| `UGAUGUUCCUCACAGAUGC` | USP32P2 | -0.5706 |
| `AAACAUGUCUCUCCCAUGC` | XKR4 | 0.4611 |
| `UUUGUUAUCAUUAGAAACC` | PCDHB12 | 0.3836 |
| `UACUGUCAGAUCAAAAGCU` | CCNA1 | -1.392 |
| `UCAAUGUCGAGCUUGCGGC` | PRND | -0.5798 |
| `UUUGUUGCUCCGUCAAAAC` | POGK | -0.2907 |
| `UAAUAUGAUAUAAACUUGG` | GNG4 | 0.3733 |
| `UUCGUUUAUGUAAUUCUGC` | KL | -0.4861 |
| `UUAGCAAAGGUCACAGCUG` | AQP7 | -0.08964 |
| `UGUCAAACACCCGAAGUCC` | MYL6 | -0.2917 |
| `ACUCAAACCAGUAAGCGGC` | LOC646484 | 0.9082 |
| `UUCAUUGUCAUACAUAGAG` | SERTAD1 | 0.2228 |
| `UUACGUGUUCGGUCAAAAC` | STT3B | 1.088 |
| `AAGUUCUUAGAAACAAUGC` | HSPB8 | 0.548 |

7 of the entries, repeated:

siRNA,gene,seed-corrected z-score
UCCUUAUUGAGCGAUUUGG,KATNAL2,0.08439
UUACUAUCGAUCUUCAUUC,VTA1,-0.2526
AGACGAAUAGCUCUCUUCC,GMEB1,1.109
UUCGUUUAUGUAAUUCUGC,KL,-0.4861
UUUGGUUCCACCGCCGUCU,IL2RB,0.19
UAGAUUCUCGGGAAAGUGG,RBMY2DP,0.05682
UUAGCAAAGGUCACAGCUG,AQP7,-0.08964